# Assay results from PubChem BioAssay AID540276 (National Center for Advancing Translational Sciences (NCATS), 2011).
# In all, about 300,000 compounds went through this assay and about 5,400 (1.8%) were called active. Inconclusive means that the source gave no clear call. Such entries were picked first, then a sample of the others. The call rests on the fitted dose curve; tested in HEK293 cells. Potencies beside an inconclusive call are fits to weak or partial responses and may not hold up.
# Test: qHTS for inhibitors of binding or entry into cells for Marburg Virus
# Conditions: Marburg virus pseudotyped entry inhibition, cell reporter; series mostly up to 37.8 µM
# Potency means the concentration at half of the fitted maximal effect.
row,SMILES,Potency
1,O=C(NCc1ccco1)c1cc(-c2ccccc2)c(N2CCOCC2)s1,"inconclusive: 7.94 µM [inhibitor, partial curve, poor fit]"
2,Cc1csc(NC(=O)/C=C/c2ccco2)n1,"inconclusive: 35.5 µM [inhibitor, single point]"
3,Cc1nc(-c2ccc(C(=O)Nc3cccc(F)c3)cc2)cs1,active: 5.01 µM
4,CCOC(=O)C1(Cc2ccc(Cl)cc2)CCN(C(=O)c2ccoc2)CC1,"inconclusive: 1 µM [activator, full curve]"
5,COC(=O)c1ccc(CN2CCC(n3nccc3NC(=O)C3CCCC3)CC2)cc1,"inconclusive: 35.5 µM [inhibitor, single point]"
6,CCOC(=O)C(=CNc1ccc(N2CCCCC2)c(S(=O)(=O)Nc2ccccc2OC)c1)C(=O)OCC,"inconclusive: 0.501 µM [inhibitor, full curve, poor fit]"
7,O=C(CC1C(=O)OCC2CCCCN21)Nc1ccccc1C(F)(F)F (stereo not drawn),"inconclusive: 0.316 µM [inhibitor, full curve, poor fit]"
8,CCCCN(CCCC)S(=O)(=O)c1ccc(NC(=O)c2c(-c3ccccc3)noc2C)cc1,"inconclusive: 35.5 µM [inhibitor, single point]"
9,Cc1cccc(OCC(=O)N/N=C/c2cn[nH]c2-c2ccc(Cl)c(Cl)c2)c1,"inconclusive: 7.08 µM [inhibitor, partial curve, poor fit]"
10,S=C(Nc1cccc(Cl)c1)Nc1ccccc1Oc1ccccc1,inactive
11,CCCCN(CCCC)Cc1ccc(C(=O)NNC(=O)Nc2ccc(F)cc2)o1,"inconclusive: 28.2 µM [inhibitor, single point]"
12,CC(=O)/C(C#N)=C1\NC(=O)C(Cc2ccc(C)c(C)c2)S1 (stereo not drawn),active: 0.411 µM
13,O=C(c1nc2ccc(Cl)cn2c1CNCC[C@@H]1C[C@@H]2C=C[C@H]1C2)N1CCCCCCC1,"inconclusive: 11.2 µM [inhibitor, partial curve, poor fit]"
14,CCCCN(C(=O)Cc1cccc(F)c1)c1c(N)n(CCC)c(=O)[nH]c1=O,"inconclusive: 5.62 µM [inhibitor, single point]"
15,COc1ccc(-n2c(=O)c3c4c(sc3n(Cc3ccccc3)c2=O)CCC4)c(OC)c1,"inconclusive: 6.31 µM [inhibitor, partial curve, poor fit]"
16,Cc1nc2ccc(NC(=S)NC3CC3)cc2nc1C,"inconclusive: 6.31 µM [inhibitor, single point]"
17,O=C(Nc1cccc(F)c1)NC1CC2CCCC(C1)N2C1CC1 (stereo not drawn),inactive
18,Cc1cccc(NN=C2c3ccccc3-c3ccccc32)c1,inactive
19,CCOC(=O)CN1C(=O)NC(c2ccc(Br)cc2)C(C(C)=O)=C1C (stereo not drawn),"inconclusive: 2.11 µM [activator, partial curve, poor fit]"
20,CC1CCCN(C(=O)C23CCC(C)(C(=O)C2)C3(C)C)C1 (stereo not drawn),inactive
21,COC(=O)c1ccc(NC(=O)c2cccc(N3C(=O)C4C5C=CC(C6CC56)C4C3=O)c2)cc1 (stereo not drawn),"inconclusive: 2.82 µM [inhibitor, partial curve, poor fit]"
22,CC(C)NC(=O)C(=O)NNC(=O)C12CC3CC(CC(C3)C1)C2,"inconclusive: 15.8 µM [activator, partial curve, poor fit]"

# Molecules from the list above that have fluorine (5):
row,SMILES,Potency
3,Cc1nc(-c2ccc(C(=O)Nc3cccc(F)c3)cc2)cs1,active: 5.01 µM
7,O=C(CC1C(=O)OCC2CCCCN21)Nc1ccccc1C(F)(F)F (stereo not drawn),"inconclusive: 0.316 µM [inhibitor, full curve, poor fit]"
11,CCCCN(CCCC)Cc1ccc(C(=O)NNC(=O)Nc2ccc(F)cc2)o1,"inconclusive: 28.2 µM [inhibitor, single point]"
14,CCCCN(C(=O)Cc1cccc(F)c1)c1c(N)n(CCC)c(=O)[nH]c1=O,"inconclusive: 5.62 µM [inhibitor, single point]"
17,O=C(Nc1cccc(F)c1)NC1CC2CCCC(C1)N2C1CC1 (stereo not drawn),inactive

# (list continues)

row,SMILES,Potency
1,COc1cccc(NC(=O)CCCn2c(=O)[nH]c3ccccc3c2=O)c1,"inconclusive: 0.058 µM [activator, partial curve, poor fit]"
2,Cn1c(-c2ccc(Br)o2)nc2ccccc21,"inconclusive: 0.355 µM [activator, full curve]"
3,CCOC(=O)c1cccc(NC(=O)N2Cc3ccccc3Oc3ncccc32)c1,"inconclusive: 3.55 µM [inhibitor, partial curve, poor fit]"
4,COc1ccc(CCNC(=O)CSCc2ccc([N+](=O)[O-])cc2)cc1OC,"inconclusive: 1.46 µM [inhibitor, full curve, poor fit]"
5,CCCCCc1c(C)nc(Nc2ccc(F)cc2)[nH]c1=O,"inconclusive: 35.5 µM [inhibitor, single point]"
6,COc1ccc(C(=O)NN)cc1,inactive
7,CCn1c(=O)c(=O)n(CC)c2cc(N3CCCCC3)c(NC(=O)c3cccc(OC)c3)cc21,inactive
8,O=C1c2ccccc2C(=O)c2c(NCCCN(CCO)CCO)cccc21,"inconclusive: 3.16 µM [inhibitor, single point]"
9,CCOc1ccc(Br)cc1C1C(C(=O)Nc2ccccc2OC)=C(C)Nc2nnnn21 (stereo not drawn),"inconclusive: 0.562 µM [inhibitor, full curve, poor fit]"
10,CC12CCC(C(=O)N(CCCN3CCN(Cc4ccccc4)CC3)C1=O)C2(C)C (stereo not drawn),"inconclusive: 35.5 µM [inhibitor, single point]"
11,CCc1ccc2oc(-c3cccc(NC(=O)c4ccc(-c5cccc([N+](=O)[O-])c5)o4)c3)nc2c1,"inconclusive: 31.6 µM [activator, single point]"
12,Fc1ccccc1CSc1nnnn1-c1ccc2c(c1)OCO2,inactive
13,C/C=C/c1ccc(OCCSc2nc(C)cc(=O)[nH]2)c(OC)c1,inactive
14,CCOC(=O)c1sc(NNC(=O)c2ccc(F)cc2)nc1C,"inconclusive: 35.5 µM [inhibitor, single point]"
15,COc1cc(NC(=O)CN2CCC(C)CC2)c(C)cc1[N+](=O)[O-],"inconclusive: 35.5 µM [activator, single point]"
16,Cn1nnc2cc(C(=O)NCCC3=CCCCC3)ccc21,"inconclusive: 10 µM [inhibitor, partial curve, poor fit]"
17,O=C(NC(c1ccccc1)c1ccccc1)c1ccc(Br)o1,inactive
18,CC1CCc2c(sc3nnn(CC(=O)Nc4cccc(C(F)(F)F)c4)c(=O)c23)C1 (stereo not drawn),inactive
19,COc1ccc(C(=O)/C=C/N(C)C)cc1OC,inactive
20,COc1ccc(CNC(=O)c2cc(-c3ccccc3OC)on2)cc1,inactive
21,Cc1nc(N)sc1-c1csc(N(C)c2ccc(O)cc2)n1,"inconclusive: 18.3 µM [activator, partial curve]"
